Data taken from PubChem BioAssay AID248 (DTP/NCI, 2004).
The list shows only some results of the screen, not a fair sample: it is rich in T/C values a quarter to a half above the control, in often repeated tests (any T/C) and in doses without a T/C. Further doses and runs are listed elsewhere. T/C gives the treated animals as a percentage of the vehicle group. Some doses have a count of surviving animals in place of a T/C: the source files T/C as zero there, which appears to mark a toxic dose or a test without result, not a measured value. Some survivor counts are full or nearly so, which does not show that the dose was tolerated: the source hardly ever lists a survival T/C far under the control, and the zero likely stands for such cases as well. Survivors were counted at the toxicity check, usually on the fifth day, unless a day is given; later deaths do not show. Schedule codes are those of the source, read here as Q, the interval in days (D) or hours (H), X, the number of doses. Some entries hold several experiments; their values stand side by side, smallest first. Where survival is the endpoint, the PubChem record calls one and a half times the control and up active, and a quarter to a half above the control has no call in these data; cut-offs in other NCI protocols can differ.

Test system: L1210 leukemia ip in BDF1 mice, survival T/C
Experiment: NCI In Vivo Anticancer Drug Screen. Data for tumor model L1210 Leukemia (intraperitoneal) in B6D2F1 (BDF1) mice
Settings: T/C endpoint: mean survival time, higher T/C = longer survival
[1] = dose: 8.0 mg/kg/injection, schedule: Q04DX003 (ip), vehicle: water
[2] = dose: 16.0 mg/kg/injection, schedule: Q04DX003 (ip), vehicle: water

O=C(O)c1ccc(C(=O)O)c(C(=O)O)c1.[NH-]C1CCCCC1[NH-].[Pt+2]
T/C (dose: 26.0 mg/kg/injection, schedule: Q01DX001 (ip), vehicle: saline): 126 % of control
T/C (dose: 52.0 mg/kg/injection, schedule: Q01DX001 (ip), vehicle: saline): 126 % of control
survivor count (dose: 60.0 mg/kg/injection, schedule: Q01DX001 (ip), vehicle: sodium bicarbonate): 1 of 6
survivor count (dose: 80.0 mg/kg/injection, schedule: Q01DX001 (ip), vehicle: sodium bicarbonate): 2 of 6

CCN(CC)CCCC(C)Nc1cc(N)nc2nc(-c3ccccc3)cnc12 (stereo unspecified) (tested in a mixture with another compound)
survivor count (dose: 150.0 mg/kg/injection, schedule: Q01DX001 (ip), vehicle: saline): 4 of 6
survivor count (dose: 300.0 mg/kg/injection, schedule: Q01DX001 (ip), vehicle: saline): 0 of 6 and 1 of 6

COc1cccc2c1C(=O)c1c(O)c3c(c(O)c1C2=O)C[C@@](O)(/C(C)=N\O)C[C@@H]3OC1CC(N)C(O)C(C)O1 (stereo partly specified)
survivor count (dose: 0.25 mg/kg/injection, schedule: Q04DX003 (ip), vehicle: water): 6 of 6
survivor count (dose: 0.5 mg/kg/injection, schedule: Q04DX003 (ip), vehicle: water): 6 of 6
survivor count (dose: 1.0 mg/kg/injection, schedule: Q04DX003 (ip), vehicle: water): 6 of 6
survivor count (dose: 2.0 mg/kg/injection, schedule: Q04DX003 (ip), vehicle: water): 6 of 6
survivor count (dose: 4.0 mg/kg/injection, schedule: Q04DX003 (ip), vehicle: water): 6 of 6
T/C [1]: 129 % of control
survivor count [1]: 6 of 6
T/C [2]: 126 % of control
survivor count [2]: 6 of 6
T/C (dose: 32.0 mg/kg/injection, schedule: Q04DX003 (ip), vehicle: water): 127 % of control

OC(CCN1CCCCC1)(c1ccccc1)C1CCCC1 (stereo unspecified)
survivor count (dose: 200.0 mg/kg/injection, schedule: Q01DX009 (ip), vehicle: Klucel (hydroxypropylcellulose) (HPC)): 0 of 6
survivor count (dose: 200.0 mg/kg/injection, schedule: Q04DX003 (ip), vehicle: Klucel (hydroxypropylcellulose) (HPC)): 2 of 4
survivor count (dose: 400.0 mg/kg/injection, schedule: Q01DX009 (ip), vehicle: Klucel (hydroxypropylcellulose) (HPC)): 0 of 6
survivor count (dose: 400.0 mg/kg/injection, schedule: Q04DX003 (ip), vehicle: Klucel (hydroxypropylcellulose) (HPC)): 0 of 4

CC1(C(=O)O)CC12c1ccccc1-c1ccccc12 (stereo unspecified)
survivor count (dose: 400.0 mg/kg/injection, schedule: Q01DX001 (ip), vehicle: acetone): 3 of 6

CCOC(=O)N=C=O
survivor count (dose: 400.0 mg/kg/injection, schedule: Q01DX009 (ip), vehicle: water): 6 of 6

O=N[O-].O=N[O-].O=N[O-].O=N[O-].O=N[O-].O=N[O-].[Ni]
T/C (dose: 100.0 mg/kg/injection, schedule: Q04DX002 (ip), vehicle: saline): 125 % of control
survivor count (dose: 200.0 mg/kg/injection, schedule: Q04DX002 (ip), vehicle: saline): 1 of 3
survivor count (dose: 400.0 mg/kg/injection, schedule: Q04DX002 (ip), vehicle: saline): 0 of 3

CCCCC(C#N)(CCCC)C(=O)OCC
survivor count (dose: 400.0 mg/kg/injection, schedule: Q04DX003 (ip), vehicle: saline with Tween-80): 5 of 5

c1ccc([CH2][Pb]([c]2ccccc2)([c]2ccccc2)[c]2ccccc2)cc1
survivor count (dose: 100.0 mg/kg/injection, schedule: Q01DX001 (ip), vehicle: saline with Tween-80): 5 of 6

Nc1ccccc1SC(CC(=O)c1ccccc1)c1cccc([N+](=O)[O-])c1 (stereo unspecified)
survivor count (dose: 130.0 mg/kg/injection, schedule: Q01DX009 (ip), vehicle: Klucel (hydroxypropylcellulose) (HPC)): 3 of 3
survivor count (dose: 300.0 mg/kg/injection, schedule: Q01DX009 (ip), vehicle: Klucel (hydroxypropylcellulose) (HPC)): 3 of 3

CN(C)CCN=C(Nc1ccccn1)Nc1ccccn1
survivor count (dose: 200.0 mg/kg/injection, schedule: Q01DX001 (ip), vehicle: saline): 1 of 6
survivor count (dose: 400.0 mg/kg/injection, schedule: Q01DX001 (ip), vehicle: saline): 0 of 6
